Values from PubChem BioAssay AID504774 (Drosophila RNAi Screening Center, 2011)
The deposit covers about 23,000 reagents; this is a random part of those with a known target gene and a result. 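Values are quantile-normalised luminescence on an arbitrary scale; higher means more cells surviving MMS.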 A plus sign joins genes that one reagent is predicted to hit. No sequences are given here.

Aim: 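Knock-downs that shift viability of MMS-exposed cells relative to untreated ones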 (primary screen)
Cells: Drosophila Kc167 cells
Reagent: long dsRNA against Drosophila genes, about 0.25 µg dsRNA per well
Timing: about 6 days: 3 days knock-down, then 3 days with or without MMS
Treatment: methyl methanesulphonate 0.004% (w/v) for 3 days after knock-down
Measured: 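ATP-dependent luminescence as a measure of live cells in MMS-exposed wells, quantile normalised within each plate, with replicate values also given as a mean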
Direction: mean viability with MMS and viability with MMS: higher = more surviving cells after MMS

| predicted target | dsRNA | mean viability with MMS | viability with MMS, replicate 1 | viability with MMS, replicate 2 |
| --- | --- | --- | --- | --- |
| CG16717 | DRSC10221 | 3.70e6 | 4.18e6 | 4.14e6 |
| Hyccin | DRSC06983 | 3.75e6 | 4.30e6 | 4.18e6 |
| AANATL6 (Arylalkylamine N-acetyltransferase-like 6) | DRSC06773 | 3.65e6 | 4.13e6 | 4.11e6 |
| Or85e (retired record) | DRSC16768 | 3.42e6 | 3.79e6 | 3.98e6 |
| melt (melted) | DRSC11367 | 3.72e6 | 4.08e6 | 4.34e6 |
| Lsp1beta (Larval serum protein 1 beta) | DRSC00757 | 3.62e6 | 4.00e6 | 4.23e6 |
| ClC-a (Chloride channel-a) | DRSC14947 | 3.40e6 | 3.91e6 | 3.85e6 |
| ClC-a (Chloride channel-a) | DRSC14948 | 3.56e6 | 4.06e6 | 4.01e6 |
| ClC-a (Chloride channel-a) | DRSC16142 | 3.68e6 | 4.21e6 | 4.15e6 |
| CG42271 | DRSC19809 | 3.48e6 | 3.87e6 | 3.91e6 |
| CG42271 | DRSC22894 | 3.39e6 | 3.92e6 | 3.89e6 |
| CG7889 | DRSC20066 | 3.75e6 | 4.15e6 | 4.00e6 |
| mbm + CG11555 | DRSC00315 | 3.43e6 | 3.85e6 | 3.90e6 |
| CG15237 | DRSC04971 | 3.49e6 | 4.00e6 | 3.94e6 |
| TrissinR (Trissin receptor) | DRSC02334 | 3.60e6 | 4.06e6 | 4.07e6 |
| TrissinR (Trissin receptor) | DRSC02335 | 3.63e6 | 4.10e6 | 4.10e6 |
| TrissinR (Trissin receptor) | DRSC02336 | 3.51e6 | 3.87e6 | 4.08e6 |
| HDAC6 (Histone deacetylase 6) | DRSC20252 | 3.58e6 | 3.94e6 | 4.29e6 |
| CheB38b (Chemosensory protein B 38b) | DRSC22874 | 3.32e6 | 3.85e6 | 3.86e6 |
| ntc (nutcracker) | DRSC08166 | 3.64e6 | 4.23e6 | 4.02e6 |
| hdm (hold'em) | DRSC18013 | 3.55e6 | 3.99e6 | 4.09e6 |
| CG9313 | DRSC04540 | 3.69e6 | 4.11e6 | 4.30e6 |
| Amnionless | DRSC00317 | 3.47e6 | 3.90e6 | 3.95e6 |
| CG10550 | DRSC14251 | 3.49e6 | 3.82e6 | 4.11e6 |
| CG18266 | DRSC02659 | 3.40e6 | 3.80e6 | 3.79e6 |
| CG33270 | DRSC10584 | 3.52e6 | 3.93e6 | 4.05e6 |
| tbc (trabuco) | DRSC20540 | 3.20e6 | 3.70e6 | 3.70e6 |
| tbc (trabuco) | DRSC23084 | 3.63e6 | 4.08e6 | 4.16e6 |

Laid out differently: results already given
CG15237 [DRSC04971]: mean viability with MMS = 3.49e6; viability with MMS, replicate 1 = 4.00e6; viability with MMS, replicate 2 = 3.94e6
TrissinR (Trissin receptor) [DRSC02334]: mean viability with MMS = 3.60e6; viability with MMS, replicate 1 = 4.06e6; viability with MMS, replicate 2 = 4.07e6
